Results deposited as PubChem BioAssay AID1259308 (NCATS, 2017).

- Test: 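Knock-downs that increase output of a recombinant reporter protein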 (primary screen)
- System: human HEK293 embryonic kidney cells stably expressing firefly luciferase (HEK-CMV-Luc2-Hygro)
- Reagents: single siRNA against human genes, 0.8 pmol siRNA per well
- Duration: 72 h
- Measurement: 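Reporter luminescence and viable-cell signal on separate replicate plates, given as percent of non-targeting control and median/MAD z-scores, plus per-cell luciferase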
- Reading the numbers: total luciferase, z-score and total luciferase, % of control: higher = more reporter protein produced; luciferase per cell, z-score: higher = more reporter output per viable cell
- Rule for the call: 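Active when the median/MAD z-score for overall luciferase is greater than 3; a gene was taken forward for validation with new siRNAs if at least two of its three siRNAs passed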
- Meaning of the calls: active = raised luciferase; inactive = no rise
The deposit covers about 59,000 reagents; this is an unselected part. About 1,510 of all reagents (2.6%) were called active. 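Calls use total luciferase alone and ignore viability, so some active siRNAs may act by altering cell number.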 A number with no mark means an inactive call. Reagents against one gene are numbered here. Further read-outs or replicates are left out here.

The opening 2 entries as a preview:
gene knocked down,reagent no.,"total luciferase, z-score","total luciferase, % of control","luciferase per cell, z-score"
LMLN,1,0.589,93.6,0.943
LMLN,2,-0.529,71.4,-0.825

The listing, repeating the preview:
gene knocked down,reagent no.,"total luciferase, z-score","total luciferase, % of control","luciferase per cell, z-score"
LMLN,1,0.589,93.6,0.943
LMLN,2,-0.529,71.4,-0.825
LMLN,3,-2.01,41.9,-0.421
C1QA,1,0.495,91.7,0.206
C1QA,2,0.988,102,1.63
C1QA,3,-1.75,47.2,-1.4
SHKBP1,1,-0.202,77.9,-0.32
SHKBP1,2,0.466,91.1,0.0402
SHKBP1,3,-1.1,60,-0.666
TRPM5,1,1.21,106,1.01
TRPM5,2,0.9,99.8,1.27
TRPM5,3,-0.679,68.4,-0.328
TBX15,1,-0.127,79.4,-0.138
TBX15,2,0.87,99.2,0.403
TBX15,3,-0.701,67.9,-0.413
HGD,1,2.37,129,2.61
HGD,2,0.361,89.1,-0.0388
HGD,3,0.0298,82.5,-0.307
MNMIP1,1,1.61,114,1.14
MNMIP1,2,2.98,141,1.74
MNMIP1,3,0.817,98.1,0.526
BTBD7,1,1.44,111,2.3
BTBD7,2,-0.546,71,0.147
BTBD7,3,0.704,95.9,0.13
